Laboratory results reported in patent publication US5470852A, “Tetrahydroprotoberberine quaternary ammonium compounds useful in for treating arrhythmia” (priority 1991, dated 1995).
Like-named read-outs stand apart in the source and are kept apart here.

What was measured:
rabbits = assay: Electrically-induced ventricular fibrillation threshold (VFT) in rabbits; assay type: in vivo, rabbit; conditions: iv 15 mg/kg
anaesthetized rats = conditions: X ± SD

SMILES	AUC (area under curve, VFT effect) (rabbits)	Lethal risk (anaesthetized rats; iv 1.0 mg/kg)	Lethal risk (anaesthetized rats; iv 3.0 mg/kg)	Lethal risk (anaesthetized rats; po 10 mg/kg)	Lethal risk (anaesthetized rats; po 30 mg/kg)
CCN(CC)CC(=O)Nc1c(C)cccc1C [Lidocaine, reference compound]	11.4	56 ± 24	41 ± 0	–	–
CCCNCC(O)COc1ccccc1C(=O)CCc1ccccc1 (centres unmarked) [propafenon, reference compound]	–	–	–	59 ± 29	41 ± 0
